Experimental data as given in the supplement of paper PMC10849652.
This is one part of the list.

The chains behind the UniProt entries cited, without tags or fusion partners. Where a name states a change or a piece, a line headed by the entry shows the natural chain unless it says otherwise.
UniProt Q9Y3A5: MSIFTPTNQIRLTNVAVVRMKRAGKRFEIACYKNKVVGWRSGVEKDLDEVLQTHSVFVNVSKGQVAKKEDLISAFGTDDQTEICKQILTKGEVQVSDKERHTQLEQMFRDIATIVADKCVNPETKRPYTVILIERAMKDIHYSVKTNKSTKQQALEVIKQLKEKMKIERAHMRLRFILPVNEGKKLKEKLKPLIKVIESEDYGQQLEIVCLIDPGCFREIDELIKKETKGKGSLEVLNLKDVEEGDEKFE
UniProt Q9BY50: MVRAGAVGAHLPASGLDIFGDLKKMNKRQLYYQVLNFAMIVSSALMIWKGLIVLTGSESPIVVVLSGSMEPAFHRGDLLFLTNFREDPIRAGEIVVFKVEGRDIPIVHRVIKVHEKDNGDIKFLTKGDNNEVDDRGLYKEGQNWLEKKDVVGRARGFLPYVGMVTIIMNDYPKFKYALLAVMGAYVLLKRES
UniProt P25815: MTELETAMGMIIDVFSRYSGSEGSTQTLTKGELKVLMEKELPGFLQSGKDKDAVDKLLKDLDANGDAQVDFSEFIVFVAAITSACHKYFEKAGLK
UniProt Q9Y6U3: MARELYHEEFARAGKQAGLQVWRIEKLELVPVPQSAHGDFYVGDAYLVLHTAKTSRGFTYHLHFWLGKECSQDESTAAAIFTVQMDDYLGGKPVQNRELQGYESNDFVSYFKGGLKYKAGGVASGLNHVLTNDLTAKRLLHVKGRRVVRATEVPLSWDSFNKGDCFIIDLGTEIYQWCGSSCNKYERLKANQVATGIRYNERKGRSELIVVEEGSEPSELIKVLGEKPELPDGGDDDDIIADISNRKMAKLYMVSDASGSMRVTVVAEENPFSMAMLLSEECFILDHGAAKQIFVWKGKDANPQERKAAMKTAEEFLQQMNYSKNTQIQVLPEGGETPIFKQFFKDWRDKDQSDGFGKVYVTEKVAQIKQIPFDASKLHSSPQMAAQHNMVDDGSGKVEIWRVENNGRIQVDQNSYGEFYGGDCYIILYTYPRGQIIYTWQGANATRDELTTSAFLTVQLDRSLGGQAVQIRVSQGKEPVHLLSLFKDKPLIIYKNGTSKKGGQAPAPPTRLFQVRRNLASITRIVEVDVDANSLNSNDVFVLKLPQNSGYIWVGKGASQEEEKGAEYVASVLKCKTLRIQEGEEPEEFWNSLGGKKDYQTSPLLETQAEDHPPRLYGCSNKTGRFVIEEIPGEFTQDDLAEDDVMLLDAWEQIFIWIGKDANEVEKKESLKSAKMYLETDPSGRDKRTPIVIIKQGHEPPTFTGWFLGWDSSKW
UniProt Q9BY42: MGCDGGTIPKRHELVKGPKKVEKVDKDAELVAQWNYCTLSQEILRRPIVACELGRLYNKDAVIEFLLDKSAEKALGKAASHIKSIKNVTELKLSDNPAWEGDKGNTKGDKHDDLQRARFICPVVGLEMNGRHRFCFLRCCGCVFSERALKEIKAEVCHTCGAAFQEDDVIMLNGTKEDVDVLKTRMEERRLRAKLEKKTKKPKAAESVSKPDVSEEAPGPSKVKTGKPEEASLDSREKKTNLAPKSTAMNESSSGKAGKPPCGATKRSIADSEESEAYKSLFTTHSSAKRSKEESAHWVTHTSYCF
UniProt Q8WXD2: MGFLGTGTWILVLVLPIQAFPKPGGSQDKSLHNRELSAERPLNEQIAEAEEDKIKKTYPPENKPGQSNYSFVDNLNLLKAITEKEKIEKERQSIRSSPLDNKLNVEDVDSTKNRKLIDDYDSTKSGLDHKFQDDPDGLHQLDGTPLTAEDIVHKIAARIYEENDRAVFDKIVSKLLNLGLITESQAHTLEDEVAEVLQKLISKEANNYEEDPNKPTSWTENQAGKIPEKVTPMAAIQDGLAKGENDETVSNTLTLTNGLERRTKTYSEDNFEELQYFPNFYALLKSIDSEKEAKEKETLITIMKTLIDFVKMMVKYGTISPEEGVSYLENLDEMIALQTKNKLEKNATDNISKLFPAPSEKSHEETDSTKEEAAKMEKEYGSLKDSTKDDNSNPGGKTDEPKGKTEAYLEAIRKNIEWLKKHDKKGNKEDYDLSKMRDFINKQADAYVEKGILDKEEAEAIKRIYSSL
UniProt O43819: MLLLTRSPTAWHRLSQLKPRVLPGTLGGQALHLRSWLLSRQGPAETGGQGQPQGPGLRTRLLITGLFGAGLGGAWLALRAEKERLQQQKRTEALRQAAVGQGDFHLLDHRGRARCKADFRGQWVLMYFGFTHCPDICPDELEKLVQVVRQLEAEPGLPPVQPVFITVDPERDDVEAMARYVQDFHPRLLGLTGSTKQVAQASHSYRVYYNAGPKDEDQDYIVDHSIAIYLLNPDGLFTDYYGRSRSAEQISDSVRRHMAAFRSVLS
UniProt O15126: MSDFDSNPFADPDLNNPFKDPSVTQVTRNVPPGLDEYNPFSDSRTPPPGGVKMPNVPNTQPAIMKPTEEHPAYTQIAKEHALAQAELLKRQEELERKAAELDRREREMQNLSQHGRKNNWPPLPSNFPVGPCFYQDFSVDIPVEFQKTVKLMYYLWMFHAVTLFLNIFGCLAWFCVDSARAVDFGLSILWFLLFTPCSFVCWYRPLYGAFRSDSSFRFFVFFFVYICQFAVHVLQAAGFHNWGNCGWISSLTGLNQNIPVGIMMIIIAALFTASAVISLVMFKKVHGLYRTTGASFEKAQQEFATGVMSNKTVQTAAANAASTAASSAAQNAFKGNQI
UniProt O14828: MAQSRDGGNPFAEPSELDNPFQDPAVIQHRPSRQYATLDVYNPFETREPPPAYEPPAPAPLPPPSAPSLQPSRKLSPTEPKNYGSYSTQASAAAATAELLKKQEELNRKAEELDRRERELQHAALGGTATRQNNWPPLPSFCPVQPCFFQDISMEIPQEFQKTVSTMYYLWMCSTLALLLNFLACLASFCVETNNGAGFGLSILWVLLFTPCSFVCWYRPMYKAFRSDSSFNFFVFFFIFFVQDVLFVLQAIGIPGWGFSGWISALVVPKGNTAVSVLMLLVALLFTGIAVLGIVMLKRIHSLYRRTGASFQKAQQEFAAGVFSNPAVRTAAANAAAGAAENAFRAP
UniProt Q5JTH9: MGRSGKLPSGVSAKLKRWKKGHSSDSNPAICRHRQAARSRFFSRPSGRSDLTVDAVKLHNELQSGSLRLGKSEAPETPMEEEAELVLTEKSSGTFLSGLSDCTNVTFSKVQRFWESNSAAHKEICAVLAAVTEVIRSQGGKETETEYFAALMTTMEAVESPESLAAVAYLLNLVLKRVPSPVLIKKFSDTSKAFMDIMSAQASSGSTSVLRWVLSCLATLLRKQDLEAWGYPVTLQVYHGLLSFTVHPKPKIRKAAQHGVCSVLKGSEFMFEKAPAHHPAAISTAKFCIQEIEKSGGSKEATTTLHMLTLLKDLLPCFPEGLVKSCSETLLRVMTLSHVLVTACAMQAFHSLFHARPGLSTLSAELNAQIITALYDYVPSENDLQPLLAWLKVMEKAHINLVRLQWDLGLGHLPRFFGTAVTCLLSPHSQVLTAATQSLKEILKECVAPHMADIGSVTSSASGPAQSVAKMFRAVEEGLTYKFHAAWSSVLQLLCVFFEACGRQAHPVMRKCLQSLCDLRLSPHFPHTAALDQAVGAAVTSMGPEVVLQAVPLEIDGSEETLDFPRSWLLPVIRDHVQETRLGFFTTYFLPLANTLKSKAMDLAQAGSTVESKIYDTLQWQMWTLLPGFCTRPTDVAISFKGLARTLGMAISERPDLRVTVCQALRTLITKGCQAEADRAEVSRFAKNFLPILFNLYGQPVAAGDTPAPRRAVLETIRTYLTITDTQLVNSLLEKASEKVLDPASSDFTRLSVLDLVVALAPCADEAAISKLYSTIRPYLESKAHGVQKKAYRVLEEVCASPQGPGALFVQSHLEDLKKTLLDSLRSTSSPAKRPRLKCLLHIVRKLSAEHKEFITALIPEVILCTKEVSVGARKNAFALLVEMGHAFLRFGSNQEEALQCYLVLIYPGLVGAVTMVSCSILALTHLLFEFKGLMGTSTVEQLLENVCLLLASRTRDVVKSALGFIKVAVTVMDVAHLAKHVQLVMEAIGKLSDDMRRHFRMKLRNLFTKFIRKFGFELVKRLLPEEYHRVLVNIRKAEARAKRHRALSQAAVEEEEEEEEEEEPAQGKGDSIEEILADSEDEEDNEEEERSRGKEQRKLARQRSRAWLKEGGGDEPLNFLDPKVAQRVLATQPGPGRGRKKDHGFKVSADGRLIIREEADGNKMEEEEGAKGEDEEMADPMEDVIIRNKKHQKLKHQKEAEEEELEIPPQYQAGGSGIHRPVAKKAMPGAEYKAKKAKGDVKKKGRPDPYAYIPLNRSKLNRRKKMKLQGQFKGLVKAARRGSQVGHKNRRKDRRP

Each target was assayed with c1cc(OCCN2CCCCC2)cc(-c2n[nH]c3ccc(-c4nnc[nH]4)cc23)c1 (assay: log2 fold change, soluble protein after heating vs DMSO (PISA); higher = thermal stabilisation; K562 cells, 10 uM, 30 min; active = over 0.2 and 3.5 SD of the protein, either way, in both replicates (recomputed)).
Summary of the method: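 K562 cells at 2×10^6 cells/mL were given 10 μM compound for 30 min. Aliquots then went through 3 min of heating across 48°C-58°C, were pooled, and were extracted in PBS with 0.5% NP-40 at 4°C, and the supernatant after 21,000xg for 90 min was quantified by TMTpro 16plex LC-MS/MS with channel sums equalised. Thermal stability relative to control samples, from duplicates, is given as log2 fold change.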

Row | Target | log2 fold change
1 | SBDS (UniProt Q9Y3A5) | inactive: -0.007
2 | SEC11C (UniProt Q9BY50) | inactive: -0.027
3 | S100P (UniProt P25815) | inactive: 0.004
4 | SCIN (UniProt Q9Y6U3) | inactive: -0.067
5 | RTF2 (UniProt Q9BY42) | inactive: 0.028
6 | SCG3 (UniProt Q8WXD2) | inactive: -0.098
7 | SCO2 (UniProt O43819) | inactive: 0.118
8 | SCAMP1 (UniProt O15126) | inactive: -0.051
9 | SCAMP3 (UniProt O14828) | inactive: 0.058
10 | RRP12 (UniProt Q5JTH9) | inactive: 0.216

Exported as tab-separated lines: part of the list above
Row	Target	log2 fold change
3	S100P (UniProt P25815)	inactive: 0.004
4	SCIN (UniProt Q9Y6U3)	inactive: -0.067
